The other results are listed elsewhere or left out.

Chains of the proteins cited; added tags and fusions are not shown.
UniProt Q0JBA9, entry or part of it: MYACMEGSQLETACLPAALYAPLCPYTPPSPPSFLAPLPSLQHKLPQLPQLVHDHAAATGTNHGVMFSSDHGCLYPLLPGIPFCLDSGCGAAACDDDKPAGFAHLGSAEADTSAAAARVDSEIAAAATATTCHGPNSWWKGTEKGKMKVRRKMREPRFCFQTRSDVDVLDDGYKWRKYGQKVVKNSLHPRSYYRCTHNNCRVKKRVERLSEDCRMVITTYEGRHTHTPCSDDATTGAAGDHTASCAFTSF

The target in the experiment is OsWRKY34 (Oryza sativa, UniProt Q0JBA9 1-250). The experiment in a line: protein-binding microarray (RPBM); PBS, 2% BSA, 51.3 ng/ul salmon testes DNA, 50 uM zinc acetate, 200 nM TF, 25 C, 1 h; high values mean tight binding. Particulars: protein: recombinant; tags: N-terminal polyhistidine and DsRed monomer fusion (pET32a); label: CyDye5-dUTP incorporated in the synthesized complementary strand; 3' TTTTT single-stranded linker to array surface; dsDNA, one strand shown. An outline of the steps: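 An Axon 4000B scanner gave the binding signal as per-feature fluorescence intensity in arbitrary units. This followed washing of a custom Agilent array that had been incubated for 1 h at 25 °C with 200 nM protein in PBS, 2% BSA, salmon testes DNA and 50 µM zinc acetate. The proteins were transcription factors fused at the N-terminus to polyhistidine and DsRed, expressed in E. coli BL21-CodonPlus and purified on Ni–NTA.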
Take “GCGTCTCTCACCGCCATGCTCGTGGCCGCCTCCCGCGATGCGGAGTCACCTAGTGCAG”: the binding signal is 8950 fluorescence intensity (a.u.). With “ATGCAATTGATCCCTCCTGCCCTCCAGTAGCAACATTCTTCGGAGTCACCTAGTGCAG” the figure was 8800 fluorescence intensity (a.u.).

With “TACATACTACACTATTAATATCTGGTCCACATATCATACACGGAGTCACCTAGTGCAG”, the binding signal is 10000 fluorescence intensity (a.u.). With “GTGACCTTTGGCAAGGCGACGACGACTTGGAGGGGAGGGCCGGAGTCACCTAGTGCAG” the figure was 8530 fluorescence intensity (a.u.). For the sequence “TTTTCGCCTTTCTATCTTTGTCAAGGCACACTTCCTTTTGCGGAGTCACCTAGTGCAG”, the binding signal was 10000 fluorescence intensity (a.u.). Then “CTCCTTCATCTGATCTGTCACTGACATCGCGGGCCCACAACGGAGTCACCTAGTGCAG”, with 8400 fluorescence intensity (a.u.); and “TGACATGCCATACCCGACATCACCTGTCATTGTCGCAACACGGAGTCACCTAGTGCAG”, with 9900 fluorescence intensity (a.u.); and “TTAGGGGTTTTCATTATACTGTAAGTATGTCTTTTTATTTCGGAGTCACCTAGTGCAG”, with 8240 fluorescence intensity (a.u.). With “AATGGTGGGCCCCACGTGGACCCCACCTGTCATCCTCGCTCGGAGTCACCTAGTGCAG” the figure was 8180 fluorescence intensity (a.u.); with “AATCCCATTTATATTTATTATTTTTGTTATAACTTGTATACGGAGTCACCTAGTGCAG”, 9840 fluorescence intensity (a.u.). With “TTATGAGCGGCCTCTACCTCATCCCATCTTCTCTCACACCCGGAGTCACCTAGTGCAG”, the binding signal is 8590 fluorescence intensity (a.u.). With “AGCTACGACAGCGTCATTCTGTCTCTGGTTTGAGGTCTCTCGGAGTCACCTAGTGCAG” the figure was 8930 fluorescence intensity (a.u.); with “TGGTCTACCCATCTTCCCAACCTTCTTGTCACCTACTCTTCGGAGTCACCTAGTGCAG”, 9560 fluorescence intensity (a.u.).

As for “CATATTACTTCTCATATTATACTTGTTTATTCTTCTATTGCGGAGTCACCTAGTGCAG”, the binding signal is 9010 fluorescence intensity (a.u.). For “GGTACTCTGGGGTTATAAGTTAATGGGTATGGTATTGTGACGGAGTCACCTAGTGCAG”, the binding signal is 11000 fluorescence intensity (a.u.).

As to “GGTGGTCGACGGCGCGCGTGGGCTTCGGCATGGCCACTTCCGGAGTCACCTAGTGCAG”, the binding signal was 8370 fluorescence intensity (a.u.). Then “CATGTTTACGTAAGGTTTTTGTTCGGTTTTCCTTATAAAACGGAGTCACCTAGTGCAG”, with 9710 fluorescence intensity (a.u.); and “TGATCCCCATTTGTCTCAATGACGCTGTTGTCAGTCTTGACGGAGTCACCTAGTGCAG”, with 10200 fluorescence intensity (a.u.); and “AATGGGGTTGGTCGTATCTATCGTAGGTGGATTATTTACCCGGAGTCACCTAGTGCAG”, with 12800 fluorescence intensity (a.u.). With “GCTGTGGTCATGGACAGGGGACGGGCTGGGGTCGTCGCGCCGGAGTCACCTAGTGCAG” the figure was 8090 fluorescence intensity (a.u.). Consider “CCGTTAAGCGCCGCGACCGACCGAACCGACCGGCCGGTATCGGAGTCACCTAGTGCAG”, for which the binding signal is 8620 fluorescence intensity (a.u.). Then “GCCATTTGCACATCTCTCTCTCTCGCTTCTGCCACTGCTGCGGAGTCACCTAGTGCAG”, with 10100 fluorescence intensity (a.u.); and “TCCCTATATATCTATCTCTCTGACTATCTTGTTCACATACCGGAGTCACCTAGTGCAG”, with 8310 fluorescence intensity (a.u.).

With “CGTGGTCGTCTCTGGAGTTCTTGTGCTGCTTTTAGCCATCCGGAGTCACCTAGTGCAG”, the binding signal was 10500 fluorescence intensity (a.u.). Then “TTCTCTACATTGTTCATTTAGTATTTTTTTCTTTTCATTTCGGAGTCACCTAGTGCAG”, with 10700 fluorescence intensity (a.u.); and “TATGTATATACATGACGTGTTTTTTTTCTTTCCGTATCTTCGGAGTCACCTAGTGCAG”, with 10100 fluorescence intensity (a.u.). Turning to “GGCCATGGCGCAATCACTTCTAGGAGTACCATTCTCTCGCCGGAGTCACCTAGTGCAG”, the binding signal is 8370 fluorescence intensity (a.u.). Then “ACCTCTCTCGTGTCGCGTGCCATTCGCCATCGCCACCACCCGGAGTCACCTAGTGCAG”, with 10500 fluorescence intensity (a.u.); and “TACTCCGTACAAATTTTCTTCTGGATCCCACCTCTGCTCTCGGAGTCACCTAGTGCAG”, with 9050 fluorescence intensity (a.u.). Consider “AGTCGTAGAGCTACACAGATTACTTGGCTTATATCTCACACGGAGTCACCTAGTGCAG”, for which the binding signal is 8460 fluorescence intensity (a.u.). Turning to “GCCGCTGCATCTCCCTTTGTGTCTTAGTTAGTTTAATCCCCGGAGTCACCTAGTGCAG”, the binding signal is 10700 fluorescence intensity (a.u.). Then “TCCAGGTGGGAAGAGTTGTTGGTGTGTCAGGTTGTCCAATCGGAGTCACCTAGTGCAG”, with 10000 fluorescence intensity (a.u.). With “CGGAGTGTTCCCAGTACAGCACCTGCCACATTTACCAGTCCGGAGTCACCTAGTGCAG” the figure was 9280 fluorescence intensity (a.u.); with “CGGTCCTTTTCTGCTTTGGTTGGTTCGCCTCTTATATCCTCGGAGTCACCTAGTGCAG”, 10900 fluorescence intensity (a.u.); with “TTATTAATTGGATGTTAACTTTGATATCTTTGTTTACTAACGGAGTCACCTAGTGCAG”, 8080 fluorescence intensity (a.u.). Consider “CTTCTCTTCGACCACGCGAACACCTATCCATTCTGTGAGGCGGAGTCACCTAGTGCAG”, for which the binding signal was 10500 fluorescence intensity (a.u.). In the case of “GCAGTCTTGTAGTCTCGTGCACCAATCGTCGCGCCGCGGCCGGAGTCACCTAGTGCAG”, the binding signal was 8400 fluorescence intensity (a.u.).

On to “GCGGGCGTTCGGTAGACAGTTTGTTTCTCTAATCACTTCCCGGAGTCACCTAGTGCAG”, for which the binding signal was 11800 fluorescence intensity (a.u.). Then “CGCTGAATCTGAAATTCTGAATGCATTTTCTATTTCTTCTCGGAGTCACCTAGTGCAG”, with 8200 fluorescence intensity (a.u.); and “TTTATTAGTTTGTGTCCTGGTTTTCTTTTTCAGTTAGATTCGGAGTCACCTAGTGCAG”, with 8430 fluorescence intensity (a.u.). Then “AGACTTTTTTTTAATATGACATATTTTTCTTTCCATTTTTCGGAGTCACCTAGTGCAG”, with 10900 fluorescence intensity (a.u.).

Take “GCGCCCTTGCCTGCTCTGCCTCCATATGCTGCTCGCCGGCCGGAGTCACCTAGTGCAG”: the binding signal was 15600 fluorescence intensity (a.u.).

These data come from article PMC7819943, “Rice protein-binding microarrays: a tool to detect cis-acting elements near promoter regions in rice”.
